Data: US20250137008A1 (UNIVERSITY OF GLASGOW, published 2025)
These are yes or no findings as the source states them, for the method shown. Some binding calls cover weakened binding; strength is not graded here. For part of these data: Tags and fused reporters may be left off the sequences shown.

Key:
[1] = biological target: T1, full-length GORK channel (GORK-Cub bait fusion) (Arabidopsis thaliana) (UniProt Q94A76); assay: rBiFC in vivo, confocal imaging
T1 sequence: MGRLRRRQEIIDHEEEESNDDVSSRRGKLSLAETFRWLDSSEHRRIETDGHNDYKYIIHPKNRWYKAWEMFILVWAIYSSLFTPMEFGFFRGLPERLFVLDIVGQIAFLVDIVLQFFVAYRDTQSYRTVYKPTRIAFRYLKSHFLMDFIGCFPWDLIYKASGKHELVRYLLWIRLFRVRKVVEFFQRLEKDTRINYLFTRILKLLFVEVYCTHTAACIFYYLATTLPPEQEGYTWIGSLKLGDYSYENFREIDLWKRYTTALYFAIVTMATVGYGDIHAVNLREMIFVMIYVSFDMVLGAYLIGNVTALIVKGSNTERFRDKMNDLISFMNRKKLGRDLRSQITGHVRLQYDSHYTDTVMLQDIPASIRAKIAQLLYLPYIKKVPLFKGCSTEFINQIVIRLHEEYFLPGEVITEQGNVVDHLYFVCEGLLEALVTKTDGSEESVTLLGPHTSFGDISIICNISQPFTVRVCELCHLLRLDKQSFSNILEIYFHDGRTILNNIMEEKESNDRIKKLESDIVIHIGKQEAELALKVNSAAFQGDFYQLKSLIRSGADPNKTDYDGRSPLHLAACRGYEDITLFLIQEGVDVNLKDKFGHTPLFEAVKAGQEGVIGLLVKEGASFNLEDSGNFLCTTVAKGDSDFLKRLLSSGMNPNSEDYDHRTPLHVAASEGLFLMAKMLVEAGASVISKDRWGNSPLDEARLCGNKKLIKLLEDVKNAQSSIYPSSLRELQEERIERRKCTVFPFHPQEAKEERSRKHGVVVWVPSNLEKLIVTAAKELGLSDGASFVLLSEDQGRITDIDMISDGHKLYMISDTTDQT

[2] = biological target: T1, full-length GORK channel (GORK-Cub bait fusion) (Arabidopsis thaliana); assay: mbSUS in yeast, GORK-Cub bait, Nub-X prey
[3] = biological target: gVSD N-terminus (soluble) (Arabidopsis thaliana) (UniProt Q94A76); assay: gel filtration of soluble N-termini (self-association)
[4] = biological target: T1, full-length GORK channel (GORK-Cub bait fusion) (Arabidopsis thaliana); assay: mbSUS in yeast, GORK-Cub bait, truncated prey

B1: GORK voltage sensor domain (gVSD) (protein)
chain: MGRLRRRQEIIDHEEEESNDDVSSRRGKLSLAETFRWLDSSEHRRIETDGHNDYKYIIHPKNRWYKAWEMFILVWAIYSSLFTPMEFGFFRGLPERLFVLDIVGQIAFLVDIVLQFFVAYRDTQSYRTVYKPTRIAFRYLKSHFLMDFIGCFPWDLIYKASGKHELVRYLLWIRLFRVRKVVEFFQRLEKDTRINYLFTRILK
- binding [1]: binds
- binding [2]: binds

B2: gVSD^PNNP (protein)
chain: MGRLRRRQEIIDHEEEESNDDVSSDDGDLSLAKTFDWLKSSKDDDIKTKGDNKYDYIIDPKNRWYKAWEMFILVWAIYSSLFTPMEFGFFRGLPERLFVLDIVGQIAFLVDIVLQFFVAYRDTQTYRTVYKPTRIAFRYLKSHFLMDFIGCFPWDLIYKASGKHELVRYLLWIRLFRVRKVVEFFQRLEKDTRINYLFTRILK
- binding [1]: binds
- binding [2]: binds

B3: gVSD N-terminus (soluble) (protein)
chain: MGRLRRRQEIIDHEEEESNDDVSSRRGKLSLAETFRWLDSSEHRRIETDGHNDYKYIIHPKNRWYKAWE
- binding [3]: binds

B4: gVSD with the first 23 residues deleted (protein)
chain: SRRGKLSLAETFRWLDSSEHRRIETDGHNDYKYIIHPKNRWYKAWEMFILVWAIYSSLFTPMEFGFFRGLPERLFVLDIVGQIAFLVDIVLQFFVAYRDTQSYRTVYKPTRIAFRYLKSHFLMDFIGCFPWDLIYKASGKHELVRYLLWIRLFRVRKVVEFFQRLEKDTRINYLFTRILK
- binding [4]: binds
